No constants are given. Whether binding was seen depends on the method and setting. Binding seen in cells or lysates may run through a third protein. Some entries that bind do so weakly or less than the wild type.
T1: desmoglein 2 (mouse (endogenous in HL-1)) (UniProt O55111)
T1 sequence: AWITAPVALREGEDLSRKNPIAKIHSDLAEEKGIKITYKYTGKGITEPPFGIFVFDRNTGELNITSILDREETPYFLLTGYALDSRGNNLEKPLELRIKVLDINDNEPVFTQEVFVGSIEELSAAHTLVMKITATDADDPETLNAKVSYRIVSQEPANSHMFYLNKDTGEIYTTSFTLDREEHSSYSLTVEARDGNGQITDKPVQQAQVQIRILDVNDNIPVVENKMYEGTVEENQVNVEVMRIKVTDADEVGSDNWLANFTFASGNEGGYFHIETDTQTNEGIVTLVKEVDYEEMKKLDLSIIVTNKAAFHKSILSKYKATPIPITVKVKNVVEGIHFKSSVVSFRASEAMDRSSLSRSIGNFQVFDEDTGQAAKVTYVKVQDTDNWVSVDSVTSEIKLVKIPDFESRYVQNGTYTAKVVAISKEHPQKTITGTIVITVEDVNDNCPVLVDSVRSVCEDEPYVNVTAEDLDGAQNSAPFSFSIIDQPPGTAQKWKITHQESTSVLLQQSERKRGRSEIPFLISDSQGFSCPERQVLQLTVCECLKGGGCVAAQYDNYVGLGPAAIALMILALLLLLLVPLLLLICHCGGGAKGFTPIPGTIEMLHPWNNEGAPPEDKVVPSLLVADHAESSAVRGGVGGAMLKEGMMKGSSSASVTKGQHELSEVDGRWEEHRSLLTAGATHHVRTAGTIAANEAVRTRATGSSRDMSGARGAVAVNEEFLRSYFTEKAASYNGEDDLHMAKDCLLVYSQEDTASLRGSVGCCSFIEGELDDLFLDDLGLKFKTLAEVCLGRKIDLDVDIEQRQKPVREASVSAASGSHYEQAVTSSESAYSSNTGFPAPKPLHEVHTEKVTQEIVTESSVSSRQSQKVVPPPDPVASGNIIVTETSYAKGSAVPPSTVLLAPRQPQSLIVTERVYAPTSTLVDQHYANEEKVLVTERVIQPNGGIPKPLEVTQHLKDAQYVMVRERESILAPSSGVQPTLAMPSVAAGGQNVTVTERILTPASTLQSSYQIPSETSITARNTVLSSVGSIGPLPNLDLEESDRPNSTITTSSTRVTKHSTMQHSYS

Amino acid sequences for entries named in this document (tags omitted).
UniProt E9Q557: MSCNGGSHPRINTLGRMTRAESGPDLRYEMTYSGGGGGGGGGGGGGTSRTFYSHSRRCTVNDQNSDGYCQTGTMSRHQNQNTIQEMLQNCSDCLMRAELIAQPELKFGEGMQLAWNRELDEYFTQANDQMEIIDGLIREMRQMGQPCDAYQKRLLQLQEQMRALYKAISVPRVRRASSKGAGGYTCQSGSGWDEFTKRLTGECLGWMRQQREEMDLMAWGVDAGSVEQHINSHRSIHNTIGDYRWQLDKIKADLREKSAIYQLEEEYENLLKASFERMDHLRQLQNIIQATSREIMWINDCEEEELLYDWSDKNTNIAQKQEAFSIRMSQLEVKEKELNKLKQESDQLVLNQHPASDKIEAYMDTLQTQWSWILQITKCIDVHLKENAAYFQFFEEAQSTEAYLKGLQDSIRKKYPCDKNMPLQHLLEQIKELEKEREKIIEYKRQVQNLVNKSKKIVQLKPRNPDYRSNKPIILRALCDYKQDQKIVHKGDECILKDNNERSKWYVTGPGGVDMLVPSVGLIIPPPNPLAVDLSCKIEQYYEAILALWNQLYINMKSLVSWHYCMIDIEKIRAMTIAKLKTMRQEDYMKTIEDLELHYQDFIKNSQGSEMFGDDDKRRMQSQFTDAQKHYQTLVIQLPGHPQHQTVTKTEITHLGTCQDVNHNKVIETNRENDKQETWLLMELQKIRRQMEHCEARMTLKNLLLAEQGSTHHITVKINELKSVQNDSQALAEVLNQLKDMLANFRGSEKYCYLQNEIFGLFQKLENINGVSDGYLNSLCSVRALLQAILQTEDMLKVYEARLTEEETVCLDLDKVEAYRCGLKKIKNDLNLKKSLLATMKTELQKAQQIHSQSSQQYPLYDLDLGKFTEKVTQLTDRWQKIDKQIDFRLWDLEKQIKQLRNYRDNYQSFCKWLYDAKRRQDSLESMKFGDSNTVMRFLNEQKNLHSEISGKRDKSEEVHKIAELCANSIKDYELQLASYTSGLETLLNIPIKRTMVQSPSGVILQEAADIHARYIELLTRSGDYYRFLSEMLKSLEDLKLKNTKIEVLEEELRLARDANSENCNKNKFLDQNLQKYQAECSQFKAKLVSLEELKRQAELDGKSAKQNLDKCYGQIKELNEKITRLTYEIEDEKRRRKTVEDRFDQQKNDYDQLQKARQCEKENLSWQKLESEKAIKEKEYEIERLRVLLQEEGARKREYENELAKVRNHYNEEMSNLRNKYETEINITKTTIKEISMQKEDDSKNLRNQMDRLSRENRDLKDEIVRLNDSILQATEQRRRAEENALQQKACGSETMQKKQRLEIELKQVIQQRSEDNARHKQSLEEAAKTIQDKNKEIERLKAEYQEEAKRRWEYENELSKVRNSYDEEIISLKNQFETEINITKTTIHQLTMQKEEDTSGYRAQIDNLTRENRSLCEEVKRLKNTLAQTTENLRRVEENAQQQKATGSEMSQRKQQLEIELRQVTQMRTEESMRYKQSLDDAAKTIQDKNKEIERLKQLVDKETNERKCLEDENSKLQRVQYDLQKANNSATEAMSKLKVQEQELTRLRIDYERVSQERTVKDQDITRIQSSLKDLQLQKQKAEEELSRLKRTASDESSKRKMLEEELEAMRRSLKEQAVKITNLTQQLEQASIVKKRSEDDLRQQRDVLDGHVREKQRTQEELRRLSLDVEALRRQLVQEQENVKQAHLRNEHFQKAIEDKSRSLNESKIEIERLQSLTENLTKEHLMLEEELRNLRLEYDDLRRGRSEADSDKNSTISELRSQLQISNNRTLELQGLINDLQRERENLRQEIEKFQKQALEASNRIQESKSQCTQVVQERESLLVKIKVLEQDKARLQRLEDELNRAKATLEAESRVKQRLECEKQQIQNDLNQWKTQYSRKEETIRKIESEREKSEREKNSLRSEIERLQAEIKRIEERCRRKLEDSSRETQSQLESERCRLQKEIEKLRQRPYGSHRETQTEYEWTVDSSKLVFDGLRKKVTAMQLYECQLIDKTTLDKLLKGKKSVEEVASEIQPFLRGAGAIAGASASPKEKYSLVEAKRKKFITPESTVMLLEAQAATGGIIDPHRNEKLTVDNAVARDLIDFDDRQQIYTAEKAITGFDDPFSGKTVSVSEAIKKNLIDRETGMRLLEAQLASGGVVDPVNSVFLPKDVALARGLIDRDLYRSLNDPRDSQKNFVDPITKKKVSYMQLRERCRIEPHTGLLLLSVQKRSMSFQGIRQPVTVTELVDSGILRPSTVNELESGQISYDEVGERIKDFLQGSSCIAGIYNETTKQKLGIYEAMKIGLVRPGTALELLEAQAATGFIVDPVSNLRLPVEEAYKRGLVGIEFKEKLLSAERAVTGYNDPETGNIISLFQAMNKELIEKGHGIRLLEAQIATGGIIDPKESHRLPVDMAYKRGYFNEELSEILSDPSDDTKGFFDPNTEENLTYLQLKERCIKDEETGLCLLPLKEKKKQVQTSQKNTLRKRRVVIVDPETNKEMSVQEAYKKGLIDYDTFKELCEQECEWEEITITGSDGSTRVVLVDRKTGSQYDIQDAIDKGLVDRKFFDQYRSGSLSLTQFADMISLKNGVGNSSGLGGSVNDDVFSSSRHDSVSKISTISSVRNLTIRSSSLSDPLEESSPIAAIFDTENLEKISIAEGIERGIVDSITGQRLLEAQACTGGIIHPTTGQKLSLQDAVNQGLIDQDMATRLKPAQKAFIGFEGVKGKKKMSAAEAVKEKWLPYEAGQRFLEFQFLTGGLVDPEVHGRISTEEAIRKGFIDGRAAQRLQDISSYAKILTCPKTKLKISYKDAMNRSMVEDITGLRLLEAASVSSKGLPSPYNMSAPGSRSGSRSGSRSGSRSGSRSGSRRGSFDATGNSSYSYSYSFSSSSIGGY


How the values were obtained:
[1] = molecular target: desmoplakin (mouse (endogenous in HL-1)) (UniProt E9Q557); assay: co-IP
[2] = molecular target: T1, desmoglein 2 (mouse (endogenous in HL-1)); assay: co-IP

Row | binding [1] | binding [2] | Binder
1 | binds | binds | plakophilin 2 (protein, UniProt Q9CQ73 1-795) MAVPGSLAECGYIRTVLGQQILGHLDSSSLALPSEARLRLAGSSGRGDPAARSQRIQEQVQQTLARRGRSSAVSGNLHRTSSVPEYVYKLHVVENDFVGRQSPVTRDYDMLKAGMTATYGSRWGRAAAQYSSQKSVEERSWRQPLRRLEISPDSSPERAHYGHSEYQYAWRSHVVPGGRLTLPRYARSEILGLRQAGTARRPPGCGSFSDAVFDNGPLKPTMPTHPPGTSHSAGSLLEETTVRVSQARLQSTQSRTARSSWPRSSVRSSLREPGRMLTTAGQAAVGSGDAHGDRSVFADAQLGNADIEMTLERAVNMLDADHVPVSKISAAATFIQHESFQKSEARKRVNQLRGIPKLLQLLKLQNEDVQRAACGALRNLVFEDNDNKLEVAELNGVPRLLQVLKQTRDLETKKQITGLLWNLSSSDKLKHLMITEALLTLTESVIIPFSGWPEGDYPKANGLLDFDIFYNVTGCLRNMSSAGPDGRKMMRRCDGLIDSLVHYVRGTIADYQPDDKATENCVCILHNLSYQLEAELPEKYSQSIYMQNRNIQTNSNKSIGCFGSRSRKLKEQYQDLQMPEERSNPHGIEWLWHSIVIRMYLSLIAKSTRNYTQEASLGALQNLTAGGGPIPTLVARMVVQKENGLQHTRKMLHVGDPSVKKTAVSLLRNLSRNLSLQNEIAKETLPDLVSIIPDTVPSTDLLIETTASACYTLNNLMQNSYQNARDLLNTGGLQKIMTISIGEGYAPNKASKAASVLLYSLWAHTELHHAYKKAQFKKTDFVNSRTAKAYHSLKD
2 | binds |  | desmoglein 2 (protein, UniProt O55111 55-1122) AWITAPVALREGEDLSRKNPIAKIHSDLAEEKGIKITYKYTGKGITEPPFGIFVFDRNTGELNITSILDREETPYFLLTGYALDSRGNNLEKPLELRIKVLDINDNEPVFTQEVFVGSIEELSAAHTLVMKITATDADDPETLNAKVSYRIVSQEPANSHMFYLNKDTGEIYTTSFTLDREEHSSYSLTVEARDGNGQITDKPVQQAQVQIRILDVNDNIPVVENKMYEGTVEENQVNVEVMRIKVTDADEVGSDNWLANFTFASGNEGGYFHIETDTQTNEGIVTLVKEVDYEEMKKLDLSIIVTNKAAFHKSILSKYKATPIPITVKVKNVVEGIHFKSSVVSFRASEAMDRSSLSRSIGNFQVFDEDTGQAAKVTYVKVQDTDNWVSVDSVTSEIKLVKIPDFESRYVQNGTYTAKVVAISKEHPQKTITGTIVITVEDVNDNCPVLVDSVRSVCEDEPYVNVTAEDLDGAQNSAPFSFSIIDQPPGTAQKWKITHQESTSVLLQQSERKRGRSEIPFLISDSQGFSCPERQVLQLTVCECLKGGGCVAAQYDNYVGLGPAAIALMILALLLLLLVPLLLLICHCGGGAKGFTPIPGTIEMLHPWNNEGAPPEDKVVPSLLVADHAESSAVRGGVGGAMLKEGMMKGSSSASVTKGQHELSEVDGRWEEHRSLLTAGATHHVRTAGTIAANEAVRTRATGSSRDMSGARGAVAVNEEFLRSYFTEKAASYNGEDDLHMAKDCLLVYSQEDTASLRGSVGCCSFIEGELDDLFLDDLGLKFKTLAEVCLGRKIDLDVDIEQRQKPVREASVSAASGSHYEQAVTSSESAYSSNTGFPAPKPLHEVHTEKVTQEIVTESSVSSRQSQKVVPPPDPVASGNIIVTETSYAKGSAVPPSTVLLAPRQPQSLIVTERVYAPTSTLVDQHYANEEKVLVTERVIQPNGGIPKPLEVTQHLKDAQYVMVRERESILAPSSGVQPTLAMPSVAAGGQNVTVTERILTPASTLQSSYQIPSETSITARNTVLSSVGSIGPLPNLDLEESDRPNSTITTSSTRVTKHSTMQHSYS
